Data published in article PMC12548414.
Out of some 1,600 compounds screened, about 20 (1%) showed an effect of 50% or more. This is one part of the list.

Tested on: T1, E. coli pLC1021 (luc-trpAt trans-translation reporter)
T1 construct: pLC1021 luc-trpAt reporter strain
Set-up: species or system Escherichia coli pLC1021; luc-trpAt non-stop luciferase reporter; luminescence rises when trans-translation is inhibited; normalized to KKL-35 and DMSO
Conditions: reporter signal, KKL-35 = 100%; rise means trans-translation inhibition; 2 h, 20 µM
Summary of the method: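 Cells carrying the non-stop luc-trpAt reporter were exposed to 20 µM compound for 2 h at room temperature, then Bright-Glo was added and luminescence read at 560 nm after 10 min. Signals were normalised per plate to DMSO and 20 µM KKL-35 wells. Hits: activity one SD above the median; ≥2 biological repeats averaged.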

SMILES | % activation
CC1=NN(c2nc3ccccc3s2)C(=O)C1Cc1cccc2ccccc12 (centres unmarked) [KKL-0363] | 9%
O=c1oc2ccccc2n1C1CCN(Cc2nc3ccccc3n2Cc2ccccc2)CC1 [KKL-0441] | 2%
COc1ccc(-c2nc(NC(=O)c3cnc(SC)nc3)sc2C)cc1F [KKL-0923] | 0%
CC1CCN(c2ccc(NC(=O)c3ccc([N+](=O)[O-])o3)cc2)CC1 [KKL-1560] | 0%
CCOC(=O)COc1cc2oc(=O)cc(CC)c2cc1Cl [KKL-0855] | 0%
Clc1ccc(OCCCNCc2ccccc2)c2ccccc12 [KKL-0417] | 48%
CCn1c(/C=C/c2ccc([N+](=O)[O-])o2)nc2ccccc2c1=O [KKL-0972] | 2%
CN(Cc1nc(O)c2ccccc2n1)Cc1nc(O)c2sccc2n1 [KKL-0832] | 0%
CC(=O)Nc1cccc(C(=O)/C=C/c2ccc(Br)cc2)c1 [KKL-0980] | 0%
O=C(Cc1ccc(F)cc1)Nc1ccc(Cl)c(C(F)(F)F)c1 [KKL-0737] | 14%
CCOc1ccc(OCC(=O)Nc2cc(C)cc(C)c2)cc1 [KKL-1450] | 7%
c1ccc(-c2nc(NCc3ccco3)c3ccccc3n2)nc1 [KKL-0369] | 0%
CCCC(=O)N1CCN(c2ccc(NC(=O)c3ccc(-c4ccc(Cl)cc4)o3)cc2Cl)CC1 [KKL-1461] | 0%
COc1cccc(-c2ccccc2NC(=O)C2CCN(CCC(C)c3ccccc3)CC2)c1 (centres unmarked) [KKL-1158] | 0%
Cc1occc1C(=O)Nc1nc(-c2ccccn2)nc2ccsc12 [KKL-1875] | 11%
COc1nc(SC)nc2sc3c(c12)CCC3 [KKL-0590] | 4%
CNc1nc(SC)nc2ccsc12 [KKL-1715] | 5%
O=C(c1ccc2oc(Cc3ccccc3)nc2c1)N1CCCCC1c1cccnc1 (centres unmarked) [KKL-0637] | 4%
COc1ccc(NC(=O)CC23CC4CC(CC(C4)C2)C3)cc1[N+](=O)[O-] [KKL-0714] | 5%
COc1ccccc1CNCc1cc2c(C)nn(-c3ccc(F)cc3)c2nc1O [KKL-1035] | 8%
CC(C)c1ccc(OCC(=O)NNC(=S)NC(=O)c2ccco2)c(Br)c1 [KKL-0743] | 24%
Cc1nc2ccccn2c1C(=O)Nc1ccc(C(C)(C)C)cc1 [KKL-1770] | 0%

SMILES | % activation
Cc1nnc(NC(=O)c2ccc3ccccc3c2)o1 [KKL-0946] | 0%
FC(F)(F)Oc1ccc(-c2cc3ccncc3cc2OC2CCNCC2)cc1 [KKL-1694] | 8%
Cn1cccc1CN1CCC2(CC1)CC1(CO2)Nc2cc(Cl)ccc2-n2cccc21 (centres unmarked) [KKL-1233] | 1%
C1=C(CCNc2[nH]cnc3c4ccccc4nc2-3)CCCC1 [KKL-1027] | 0%
CCn1ccnc1CN(C)Cc1cn(-c2ccc(C)cc2)nc1-c1ccc(F)cc1 [KKL-0657] | 0%
O=C(NCc1ccc2c(c1)OCO2)c1cnn2c1NC(c1cccs1)CC2C(F)(F)F (centres unmarked) [KKL-0568] | 0%
Cc1cc(Cl)ccc1NC(=O)CCc1ccc(S(=O)(=O)NC(C)C)cc1 [KKL-1581] | 0%
CCOc1ccccc1NC(=O)CSc1nc2ccc(NC(=O)c3ccccc3Cl)cc2s1 [KKL-1267] | 0%
CCn1c(/C=C/c2ccc([N+](=O)[O-])o2)nc2ccc(I)cc2c1=O [KKL-0295] | 0%
O=C(Nc1nc2c(s1)CCCc1cccnc1-2)c1ccccc1C(F)(F)F [KKL-1736] | 26%
O=C(C1CCN(c2nnc(-n3cccc3)s2)CC1)N1CCC(Cc2ccccc2)CC1 [KKL-1838] | 1%
O=C(Nc1nnc(-c2ccc(Cl)cc2)o1)c1cccc(C(F)(F)F)c1 [KKL-0209] | 24%
CC(=O)OCCNc1cc(SCc2ccco2)c2nonc2c1[N+](=O)[O-] [KKL-1152] | 0%
c1cc(N2CCN(c3nncc(-c4ccc(C5CCCCC5)cc4)n3)CC2)ccn1 [KKL-0322] | 0%
COc1cccc(C(=O)Oc2ccccc2/C=C/C(=O)c2cc3ccccc3o2)c1 [KKL-0944] | 0%
CCn1c(=O)c(=O)[nH]c2cc(C(=O)Nc3ccccc3Nc3ccc(OC)cc3)ccc21 [KKL-1691] | 2%
O=C(Nc1ccc(-n2cccn2)cc1)C1CCCCN1Cc1cccc2nonc12 (centres unmarked) [KKL-0477] | 1%
C(=C\c1nc(N2CCCC2)c2ccccc2n1)/c1ccccc1 [KKL-1269] | 0%
COc1ccc(OCc2n(CC(=O)OC3CC(C)CCC3C(C)C)c3ccccc3[n+]2C)cc1 (centres unmarked) [KKL-1510] | 0%
O=C(Oc1cccc2cccnc12)c1ccccc1Br [KKL-1385] | 0%
O=C(c1cc(COc2ccc3c(c2)CCCC3)on1)N1CCCCO1 [KKL-1184] | 0%
Cc1ccc(-c2c[n+](CC(=O)Nc3nc(-c4ccc(F)cc4)cs3)c3n2CCC3)cc1 [KKL-0377] | 21%

SMILES | % activation
COC(=O)COc1cccc(NC(=O)c2cccc(C)c2)c1 [KKL-1491] | 1%
CC(=O)NC(=S)NNC(=O)c1ccc(C)c(Br)c1 [KKL-0065] | 186%
CC1=C2C(=O)CCCC2=NC1C(=O)NCCOc1ccccc1 (centres unmarked) [KKL-1733] | 0%
c1ccc(CCNc2nc3ccccc3[nH]2)cc1 [KKL-1103] | 0%
CCOc1cc(CNCCO)cc(Br)c1OCc1ccc(Cl)cc1Cl [KKL-1565] | 0%
Cc1cc(C(=O)NCC23CC4CC(CC(C4)C2)C3)ccc1[N+](=O)[O-] [KKL-1425] | 0%
c1csc(Cc2nn3c(-c4n[nH]c5c4CCC5)nnc3s2)c1 [KKL-1674] | 0%
CCOc1cc(CNC(C)C23CC4CC(CC(C4)C2)C3)cc(Cl)c1OCC(=O)NC(C)(C)C (centres unmarked) [KKL-1582] | 0%
O=C(Cn1nc2c(cc1=O)CCc1nc(N3CCCCC3)ncc1-2)OC1CCCCC1 [KKL-0682] | 0%
O=C(NC1=NCCS1)c1sc2cc(F)ccc2c1Cl [KKL-1703] | 0%
CCOC(=O)c1ccc(NC(S)=Nc2ccc(F)c(Cl)c2)cc1 [KKL-1537] | 0%
Cc1cc(NCc2ccccn2)n2ncc(-c3ccccc3)c2n1 [KKL-0947] | 0%
COc1ccc(Cn2c(=O)c3c(n4cnnc24)-c2ccccc2CC32CCCCC2)cc1 [KKL-0716] | 13%
Cc1cc(C(=O)Oc2ccc(Cc3ccccc3)cc2)ccc1[N+](=O)[O-] [KKL-0290] | 0%
CC(C)(C)c1ccc(C(=O)NC(=S)Nc2ccc(C(=O)O)cc2)cc1 [KKL-1314] | 0%
Cc1nn(C)c(C)c1-c1cc(C(=O)NCCCc2ccc(F)cc2)[nH]n1 [KKL-0705] | 2%
CCOC(=O)C(Oc1ccc2oc(C)c(C(=O)OC)c2c1)c1ccccc1 (centres unmarked) [KKL-0300] | 0%
O=C(/C=C/c1ccc(Cl)cc1)c1cccnc1 [KKL-0393] | 0%
C[C@@H]1C(=O)O[C@H]2[C@H]1CC[C@@]1(C)Cc3sc(NC(=O)Nc4ccc(F)cc4F)nc3[C@@H](C)[C@H]21 [KKL-0550] | 0%
COc1ccc(C(=O)Oc2ccc(C(=O)OCc3ccccc3)cc2)cc1OC [KKL-1541] | 0%
CCOC(=O)c1cnc(-n2nc(C)cc2C)nc1NCCc1ccccc1 [KKL-0998] | 10%
Cc1nn(-c2nc3ccccc3[nH]2)c(N)c1-c1ccccc1 [KKL-1566] | 0%

Structures from the list above that contain an aryl thioether with sulfur outside any ring:
SMILES | % activation
COc1ccc(-c2nc(NC(=O)c3cnc(SC)nc3)sc2C)cc1F [KKL-0923] | 0%
COc1nc(SC)nc2sc3c(c12)CCC3 [KKL-0590] | 4%
CNc1nc(SC)nc2ccsc12 [KKL-1715] | 5%
CCOc1ccccc1NC(=O)CSc1nc2ccc(NC(=O)c3ccccc3Cl)cc2s1 [KKL-1267] | 0%
CC(=O)OCCNc1cc(SCc2ccco2)c2nonc2c1[N+](=O)[O-] [KKL-1152] | 0%

Next structures.

SMILES | % activation
CCOC(=O)Cn1nnc(-c2ccc(OCc3ccccc3F)cc2)n1 [KKL-1264] | 0%
CN(C(=O)c1c[nH]nc1-c1ccc(CNC(=O)c2cccc(Cl)c2)cc1)c1ccccc1 [KKL-1349] | 4%
CCOC(=O)C1(CCOC)CCN(Cc2ccc(N(C)c3ccccc3)cc2)CC1 [KKL-0619] | 2%
COc1ccc(CCNC(=O)c2c(C)nc3ccccn23)cc1 [KKL-1746] | 14%
CC(NC(=O)NNC(=O)c1ccncc1)(C(F)(F)F)C(F)(F)F [KKL-0591] | 0%
CCC(C)Oc1ccc(C(=O)NC(=S)Nc2ccc3c(c2)COC3=O)cc1 (centres unmarked) [KKL-1429] | 0%
COc1ccc(-c2n(C)c3ccccc3[n+]2CC(=O)OC2CC(C)CCC2C(C)C)cc1 (centres unmarked) [KKL-1662] | 0%
COC(=O)c1cc(NC(=O)Nc2cccc(Cl)c2)cc(C(=O)OC)c1 [KKL-1351] | 6%
CC1=CC(C)(C)Nc2ccc(OC(=O)c3cccs3)cc21 [KKL-0410] | 0%
COc1ccc(-c2cc(C(=O)N3C[C@H](C)N(Cc4ccco4)C[C@@H]3C)no2)cc1 [KKL-0930] | 0%
O=C(Nc1nc(-c2ccc3c(c2)CCO3)cs1)c1cccc(Cn2cncn2)c1 [KKL-1224] | 0%
COC(=O)C(CC(C)C)NC(=O)/C=C/c1ccccc1Cl (centres unmarked) [KKL-1105] | 0%
Cc1ccc(C(=O)Nc2nc(-c3ccccn3)cs2)s1 [KKL-1686] | 12%
Cc1ccc(NC2CCCN(C3CSCCSC3)C2)cc1C (centres unmarked) [KKL-0318] | 6%
Cc1ccc(-n2cc(CN(C)Cc3cc(C)[nH]n3)c(-c3ccc(F)cc3)n2)cc1 [KKL-0319] | 0%
CCOC(=O)/C(C#N)=C/c1ccc(-c2ccc(F)cc2)o1 [KKL-0788] | 0%
CN(C)CCCNc1cc(C(C)(C)C)nc2c(-c3ccccc3)cnn12 [KKL-0371] | 0%
O=C(Nc1ccccc1-c1ccccc1)C(Cl)(Cl)Cl [KKL-0736] | 0%
CC1(C)C=Cc2c(nc3ccccc3c2NCc2ccccc2)C1 [KKL-0785] | 0%
CC(Nc1nc(N2CCN(C(=O)c3ccc(Cl)cc3)CC2)nc2ccccc12)c1ccccc1 (centres unmarked) [KKL-1529] | 4%
